For the assay, the target named is T1, FLAG-tagged full-length (FL) Trim59 (mouse) (UniProt Q922Y2).
T1 sequence: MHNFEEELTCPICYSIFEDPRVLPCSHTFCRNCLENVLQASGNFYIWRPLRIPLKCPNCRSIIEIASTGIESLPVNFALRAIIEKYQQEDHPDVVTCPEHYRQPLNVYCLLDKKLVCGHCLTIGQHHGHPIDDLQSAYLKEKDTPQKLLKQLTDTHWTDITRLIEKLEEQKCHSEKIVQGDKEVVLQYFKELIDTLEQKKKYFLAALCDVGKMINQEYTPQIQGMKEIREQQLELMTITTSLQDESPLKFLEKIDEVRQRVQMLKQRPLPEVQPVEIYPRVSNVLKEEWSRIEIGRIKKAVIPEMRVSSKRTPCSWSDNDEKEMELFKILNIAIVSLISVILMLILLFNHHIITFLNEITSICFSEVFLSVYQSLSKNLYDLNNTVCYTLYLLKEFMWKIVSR
In words: affinity purification with mass spectrometry; HEK293T transfected with FLAG-Vector or FLAG-Trim59 for 24 h; immunoprecipitation with FLAG antibody, SDS-PAGE, silver stain, LC-MS/MS.

Results are given in words; binding and its absence hold for the method and conditions named. In cells and extracts the contact can be indirect. A yes stands for co-enrichment or nearness to the bait. Other partners may have been found. Sequences can lack the tags named with a protein.

For myosin (human (endogenous in HEK293T)), the binding result is listed as “binds”.

The record behind these values is article PMC5833458.
